At least one structure is not confirmed: it was looked up by name or label, or the drawing left a doubt. Where a SMILES comes first, the peptide text is derived from it. [ ]: non-standard residue; d: D form. The star is where a group is joined. X3 = CN1/C(=C/C=C/C=C/C2=[N+](CCCCCC(=O)*)c3ccc(S(=O)(=O)[O-])cc3C2(C)C)C(C)(C)c2cc(S(=O)(=O)O)ccc21; DOTA = O=C(O)CN1CCN(CC(=O)O)CCN(CC(=O)*)CCN(CC(=O)O)CC1; EuK = O=C(O)CC[C@H](NC(=O)N[C@@H](CCCCN*)C(=O)O)C(=O)O; 2Nal = N[C@@H](Cc1ccc2ccccc2c1)C(=O)O; Trx = NC[C@H]1CC[C@H](C(=O)O)CC1; βAla = NCCC(=O)O; Sar = CNCC(=O)O
Molecular target: T1, PSMA (Homo sapiens, UniProt Q04609)
T1 construct: determined in vitro using PSMA^+-cells (LNCaP); host or cells: LNCaP cells
Assay: Competitive cell binding assay against 68Ga-PSMA-10 on LNCaP cells
Settings: free ligands, radioligand 68Ga-PSMA-10 0.8 nM, mean ± SD n=3

Protein sequences, listed by entry. Tags and fused reporters are not part of them.
UniProt Q04609, whole entry: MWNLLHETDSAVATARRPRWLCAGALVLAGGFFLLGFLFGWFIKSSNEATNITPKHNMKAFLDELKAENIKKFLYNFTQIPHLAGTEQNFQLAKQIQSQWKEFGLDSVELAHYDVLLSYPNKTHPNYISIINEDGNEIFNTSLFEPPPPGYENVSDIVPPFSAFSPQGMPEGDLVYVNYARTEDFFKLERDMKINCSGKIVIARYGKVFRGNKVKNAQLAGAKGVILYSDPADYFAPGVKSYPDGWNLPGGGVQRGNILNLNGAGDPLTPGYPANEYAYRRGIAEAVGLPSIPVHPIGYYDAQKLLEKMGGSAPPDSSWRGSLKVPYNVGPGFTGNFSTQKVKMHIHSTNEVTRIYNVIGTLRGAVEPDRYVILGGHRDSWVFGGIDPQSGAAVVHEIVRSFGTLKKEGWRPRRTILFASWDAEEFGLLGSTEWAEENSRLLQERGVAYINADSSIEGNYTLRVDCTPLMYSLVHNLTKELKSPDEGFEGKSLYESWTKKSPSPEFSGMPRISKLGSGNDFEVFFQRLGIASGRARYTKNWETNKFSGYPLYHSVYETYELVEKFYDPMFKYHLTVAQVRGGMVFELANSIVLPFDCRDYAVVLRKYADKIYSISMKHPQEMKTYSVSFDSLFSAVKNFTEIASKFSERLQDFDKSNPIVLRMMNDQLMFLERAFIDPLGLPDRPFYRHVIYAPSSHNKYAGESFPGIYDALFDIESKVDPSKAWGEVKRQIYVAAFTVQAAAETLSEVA

CN(CC(=O)NC[C@H]1CC[C@H](C(=O)N[C@@H](Cc2ccc3ccccc3c2)C(=O)NCCCC[C@H](NC(=O)N[C@@H](CCC(=O)O)C(=O)O)C(=O)O)CC1)C(=O)CN(C)C(=O)CN(C)C(=O)CN(C)C(=O)CN(C)C(=O)[C@H](CCCCNC(=O)CN1CCN(CC(=O)O)CCN(CC(=O)O)CCN(CC(=O)O)CC1)NC(=O)CN(C)C(=O)CN(C)C(=O)CN(C)C(=O)CN(C)C(=O)CN(C)C(=O)CCNC(=O)CCCCC[N+]1=C(/C=C/C=C/C=C2/N(C)c3ccc(S(=O)(=O)O)cc3C2(C)C)C(C)(C)c2cc(S(=O)(=O)[O-])ccc21 [BP-1, Glu-urea-Lys-2-Nal-Chx-Sar5-Lys(DOTA)-Sar5-bAla-sulfoCy5] ({X3-βAla}-[Sar][Sar][Sar][Sar][Sar]K(DOTA)[Sar][Sar][Sar][Sar][Sar][Trx][2Nal]-EuK)
Ki: 62.4 ± 16.5 nM

CN(CC(=O)NC[C@H]1CC[C@H](C(=O)N[C@@H](Cc2ccc3ccccc3c2)C(=O)NCCCC[C@H](NC(=O)N[C@@H](CCC(=O)O)C(=O)O)C(=O)O)CC1)C(=O)CN(C)C(=O)CN(C)C(=O)CN(C)C(=O)CN(C)C(=O)[C@H](CCCCNC(=O)CCCCC[N+]1=C(/C=C/C=C/C=C2/N(C)c3ccc(S(=O)(=O)O)cc3C2(C)C)C(C)(C)c2cc(S(=O)(=O)[O-])ccc21)NC(=O)CN(C)C(=O)CN(C)C(=O)CN(C)C(=O)CN(C)C(=O)CN(C)C(=O)CCNC(=O)CN1CCN(CC(=O)O)CCN(CC(=O)O)CCN(CC(=O)O)CC1 [BP-4, Glu-urea-Lys-2-Nal-Chx-Sar5-Lys(sulfoCy5)-Sar5-bAla-DOTA] ({DOTA-βAla}-[Sar][Sar][Sar][Sar][Sar]K(X3)[Sar][Sar][Sar][Sar][Sar][Trx][2Nal]-EuK)
Ki: 64.9 ± 6.82 nM
